Assay results published in publication doi:10.1101/2020.04.24.059055.
Results are given in words; binding and its absence hold for the method and conditions named. In cells and extracts the contact can be indirect. Some entries that bind do so weakly or less than the wild type.

By UniProt entry, the sequences of proteins in these tests, tags left out. Where a name states a change or a piece, a line headed by the entry shows the natural chain unless it says otherwise. Residues count along the entry.
UniProt Q60793: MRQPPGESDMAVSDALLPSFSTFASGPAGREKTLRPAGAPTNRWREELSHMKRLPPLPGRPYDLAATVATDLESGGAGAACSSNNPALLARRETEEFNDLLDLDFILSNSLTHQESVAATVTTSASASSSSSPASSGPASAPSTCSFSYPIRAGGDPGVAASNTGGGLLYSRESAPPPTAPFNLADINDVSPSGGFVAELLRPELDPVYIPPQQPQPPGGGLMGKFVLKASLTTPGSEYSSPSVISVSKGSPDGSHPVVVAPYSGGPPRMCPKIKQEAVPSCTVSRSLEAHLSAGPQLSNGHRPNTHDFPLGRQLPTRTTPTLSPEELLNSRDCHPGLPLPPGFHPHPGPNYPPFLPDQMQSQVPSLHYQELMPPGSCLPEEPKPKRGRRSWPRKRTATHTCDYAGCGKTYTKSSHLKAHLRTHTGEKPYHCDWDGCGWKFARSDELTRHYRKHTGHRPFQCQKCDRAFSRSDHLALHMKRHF
GST-Klf4 401-483 aa: residues 401-483 of Q60793
UniProt P70288: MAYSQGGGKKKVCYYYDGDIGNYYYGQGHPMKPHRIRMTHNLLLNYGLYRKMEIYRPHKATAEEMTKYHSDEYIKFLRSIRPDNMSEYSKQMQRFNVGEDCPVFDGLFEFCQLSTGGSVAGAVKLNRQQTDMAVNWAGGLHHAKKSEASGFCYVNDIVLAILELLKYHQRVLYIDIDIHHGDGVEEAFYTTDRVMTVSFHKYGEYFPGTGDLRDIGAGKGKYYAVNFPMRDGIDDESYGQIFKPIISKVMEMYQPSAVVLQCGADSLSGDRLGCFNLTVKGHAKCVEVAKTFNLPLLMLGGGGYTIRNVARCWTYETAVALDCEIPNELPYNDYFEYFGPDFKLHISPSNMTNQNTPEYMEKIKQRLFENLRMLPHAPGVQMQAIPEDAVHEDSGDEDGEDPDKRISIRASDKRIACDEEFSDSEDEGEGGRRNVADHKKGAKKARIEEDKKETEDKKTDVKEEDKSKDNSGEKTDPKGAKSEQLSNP
UniProt Q9JIF0: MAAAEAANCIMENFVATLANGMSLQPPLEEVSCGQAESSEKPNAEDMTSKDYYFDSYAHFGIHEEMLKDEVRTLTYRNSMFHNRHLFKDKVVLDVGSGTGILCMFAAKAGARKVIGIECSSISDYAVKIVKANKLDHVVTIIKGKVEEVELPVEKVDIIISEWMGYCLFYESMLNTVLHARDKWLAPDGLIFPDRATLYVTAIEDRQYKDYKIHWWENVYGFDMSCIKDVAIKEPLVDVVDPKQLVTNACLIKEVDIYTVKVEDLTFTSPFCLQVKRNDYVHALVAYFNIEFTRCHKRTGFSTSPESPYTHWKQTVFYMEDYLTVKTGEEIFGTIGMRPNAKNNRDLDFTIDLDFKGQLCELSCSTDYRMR
UniProt O09106: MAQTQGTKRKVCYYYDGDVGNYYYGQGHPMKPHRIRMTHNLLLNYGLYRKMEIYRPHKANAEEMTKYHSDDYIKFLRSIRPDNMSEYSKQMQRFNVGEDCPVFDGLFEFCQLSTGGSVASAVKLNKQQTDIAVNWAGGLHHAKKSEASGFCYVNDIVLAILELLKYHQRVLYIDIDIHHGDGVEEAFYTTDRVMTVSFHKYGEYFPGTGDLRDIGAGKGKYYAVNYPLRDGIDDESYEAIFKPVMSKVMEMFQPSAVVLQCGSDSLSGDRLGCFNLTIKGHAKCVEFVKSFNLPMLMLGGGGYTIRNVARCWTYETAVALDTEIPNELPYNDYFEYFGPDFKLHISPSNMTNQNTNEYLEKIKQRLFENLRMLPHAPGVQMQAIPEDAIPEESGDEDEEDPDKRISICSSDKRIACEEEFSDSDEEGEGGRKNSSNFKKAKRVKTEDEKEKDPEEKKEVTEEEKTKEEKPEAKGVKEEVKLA

B1: mSin3a (protein, UniProt Q60520 1-1274)
chain: MKRRLDDQESPVYAAQQRRIPGSTEAFSHQHRVLAPAPPVYEAVSETMQSATGIQYSVAPNYQVSAVPQSSGSHGPAIAAVHSSHHHPTAVQPHGGQVVQSHAHPAPPVAPVQGQQQFQRLKVEDALSYLDQVKLQFGSQPQVYNDFLDIMKEFKSQSIDTPGVISRVSQLFKGHPDLIMGFNTFLPPGYKIEVQTNDMVNVTTPGQVHQIPTHGIQPQPQPPPQHPSQPSSQSAPTPAQPAPQPTAAKVSKPSQLQAHTPASQQTPPLPPYASPRSPPVQPHTPVTISLGTAPSLQNNQPVEFNHAINYVNKIKNRFQGQPDIYKAFLEILHTYQKEQRNAKEAGGNYTPALTEQEVYAQVARLFKNQEDLLSEFGQFLPDANSSVLLSKTTAEKVDSVRNDHGGTVKKPQLNNKPQRPSQNGCQIRRHSGTGATPPVKKKPKLMSLKESSMADASKHGVGTESLFFDKVRKALRSAEAYENFLRCLVIFNQEVISRAELVQLVSPFLGKFPELFNWFKNFLGYKESVHLESFPKERATEGIAMEIDYASCKRLGSSYRALPKSYQQPKCTGRTPLCKEVLNDTWVSFPSWSEDSTFVSSKKTQYEEHIYRCEDERFELDVVLETNLATIRVLEAIQKKLSRLSAEEQAKFRLDNTLGGTSEVIHRKALQRIYADKAADIIDGLRKNPSIAVPIVLKRLKMKEEEWREAQRGFNKVWREQNEKYYLKSLDHQGINFKQNDTKVLRSKSLLNEIESIYDERQEQATEENAGVPVGPHLSLAYEDKQILEDAAALIIHHVKRQTGIQKEDKYKIKQIMHHFIPDLLFAQRGDLSDVEEEEEEEMDVDEATGAPKKHNGVGGSPPKSKLLFSNTAAQKLRGMDEVYNLFYVNNNWYIFMRLHQILCLRLLRICSQAERQIEEENREREWEREVLGIKRDKSDSPAIQLRLKEPMDVDVEDYYPAFLDMVRSLLDGNIDSSQYEDSLREMFTIHAYIAFTMDKLIQSIVRQLQHIVSDEVCVQVTDLYLAENNNGATGGQLNSQTSRSLLESAYQRKAEQLMSDENCFKLMFIQSQGQVQLTVELLDTEEENSDDPVEAERWSDYVERYMSSDTTSPELREHLAQKPVFLPRNLRRIRKCQRGREQQEKEGKEGNSKKTMENVESLDKLECRFKLNSYKMVYVIKSEDYMYRRTALLRAHQSHERVSKRLHQRFQAWVDKWTKEHVPREMAAETSKWLMGEGLEGLVPCTTTCDTETLHFVSINKYRVKYGTVFKAP

Columns and labels:
[1] = target: Klf4 (endogenous, E14 cells) (mouse (endogenous in E14)) (UniProt Q60793); experiment: co-IP
[2] = target: FLAG-Klf4 (WT), in E14 cells (mouse) (UniProt Q60793); experiment: co-IP
Myc-Klf4 (mouse) = Myc-Klf4 (mouse) (UniProt Q60793); experiment: co-IP
[3] = target: GST-Klf4 401-483 aa (mouse) (UniProt Q60793); experiment: pull-down

| Molecule | binding [1] | binding [2] | binding (Myc-Klf4 (mouse)) | binding [3] |
| --- | --- | --- | --- | --- |
| HDAC2 (from UniProt P70288 1-488) (enzyme) | binds | binds | – | – |
| FLAG-Prmt1 (from UniProt Q9JIF0 1-371) (enzyme) | – | – | binds | binds |
| HDAC1 (from UniProt O09106 1-482) (enzyme) | binds | binds | – | – |
| B1 | binds | binds | – | – |
